The source gives many values for each of these; only a part stands here.
Test system: PBMC of RRMS patients
Experiment: Gene expression microarray analysis (HG-U133A-2) of PBMC from RRMS patients treated with LAQ, ancillary study to ALLEGRO
Assay type: in vivo, human
Source text: The goal of this ancillary study was to characterize gene expression changes and corresponding biological mechanisms induced in PBMC of RRMS patients by LAQ treatment. According to ALLEGRO clinical trial inclusion criteria, 25 patients were randomly assigned to receive LAQ (n=13, age 38.8±2.3 years, female/male ratio: 8/5) or placebo (n=12, age 37.2±3.4 years, female/male ratio: 8/4).
Peripheral blood samples were obtained from RRMS patients at baseline before start of LAQ treatment or placebo, after 0, 1, 6 and 24 month of treatment (visit 0, 1, 6 and 7 according to ALLEGRO clinical trial protocol correspondently) for gene microarray analysis.
Briefly, 1) Peripheral blood mononuclear cells (PBMC) were obtained from RRMS patients that participated in ALLEGRO and were treated daily with 0.6 mg LAQ or placebo. PBMC were subjected for gene expression analysis (HU-133A-2-Affymatrix arrays) at baseline and at 1 and 6 months of LAQ treatment; 2) Data was analyzed by Partek Genomics Solution software. Most informative genes (MIGs) were defined as those that differentiated between groups with p<0.01. Gene functional annotation, enrichment and pathway analysis were performed by Ingenuity software. For each time point, genes that changed in placebo group were excluded from further analysis; and 3) Verification of LAQ related mechanism was performed by Western blot.
PBMC were extracted from 15 ml peripheral blood, separated by Ficoll-Hypaque gradient. Total RNA was extracted using both Trizol (Invitrogen, USA) and Phase-Lock-Gel columns (Eppendorf, Germany) including a DNase digestion step. RNA integrity was assessed by RNA Experion automated electrophoresis system (Bio-Rad Laboratories, Hercules, Calif.).
Probe synthesis using 3 μg total RNA, hybridization, detection, and scanning was performed according to the standard Affymetrix, Inc. USA protocols; cDNA was synthesized using the Two-Cycle cDNA Synthesis Kit (Affymetrix, Inc., USA), and in-vitro transcription performed with the GeneChip IVT Labeling Kit (Affymetrix, Inc., USA). The biotin-labeled IVT-RNA was hybridized to HG-U133A-2 arrays containing 18,400 gene transcripts, each corresponding to 14,500 well-annotated human genes, washed in a GeneChip Fluidics Station 450 (Hewlett Packard, USA, GeneArray-™ scanner G2500A) and scanned according to the manufacturer's protocol (Affymetrix, Inc., USA).
Data analysis was performed on Partek Genomics Solution software (www.partek.com; Partek Incorporated, St. Louis, Mo.). Expression values were computed from raw CEL files by applying the Robust Multi-Chip Average (RMA) background correction algorithm. RMA correction included: 1) values background correction; 2) quintile normalization; 3) log 2 transformation; and 4) median polish summarization. The ANOVA, Repeated Measures and correlation analysis implicated in Partek software ware applied to evaluate LAQ effects. Most informative genes MIGs were defined as those that differentiated between experimental groups with p<0.01. All p-values were calculated for False Discovery Rate (FDR) multiple test correction at p=0.05.
Additionally, significance of individual genes was tested by parametric T-test and non parametric Mann-Whitney test using Bootstrapping approach based on repeated permutations of the data with 5% FDR for multiple testing.
Gene functional annotation, enrichment, and pathway analyses to identify the leading biological pathways that operated under LAQ treatment were performed by Ingenuity Pathways Analysis software (www.ingenuity.com).
ANOVA analysis was used to compare PBMC gene expression after 1, 6 or 24 month of LAQ treatment with baseline gene expression.
For each time point inventors performed analysis source of variation in dataset. (FIG. 1). Age, gender and batch effects were considered as confounders regarding LAQ or Placebo related changes. For each time point genes associated with Placebo effect were evaluated and excluded from further analysis. […]

Question: Which results are given for `CCN(C(=O)c1c(O)c2c(Cl)cccc2n(C)c1=O)c1ccccc1` [LAQ, 5-chloro-N-ethyl-4-hydroxy-1-methyl-2-oxo-N-phenyl-1,2-dihydroquinoline-3-carboxamide]?
Answer: Fold-Change (4.0 vs. 0.0) (gene MYH15, six months of treatment): −1.154; Fold-Change (4.0 vs. 0.0) (gene MYL10, after six months of LAQ): −1.247; Fold-Change (4.0 vs. 0.0) (gene MYO9B, after six months of LAQ): −1.279; Fold-Change (4.0 vs. 0.0) (gene MYOG, six months of treatment): −1.154; Fold-Change (4.0 vs. 0.0) (gene MYOZ2, PBMC, six months of LAQ treatment): −1.113; Fold-Change (4.0 vs. 0.0) (gene MYT1, six months of treatment): −1.148; Fold-Change (4.0 vs. 0.0) (gene NACA2): −1.177; Fold-Change (4.0 vs. 0.0) (gene NACAD, after six months of LAQ): −1.123; Fold-Change (4.0 vs. 0.0) (gene NAT8, after six months of LAQ): −1.14; Fold-Change (4.0 vs. 0.0) (gene NCAPH2, after six months of LAQ): −1.136; Fold-Change (4.0 vs. 0.0) (gene NCRNA00120, PBMC, six months of LAQ treatment): −1.118; Fold-Change (4.0 vs. 0.0) (gene NES, after six months of LAQ): −1.141; Fold-Change (4.0 vs. 0.0) (gene NFATC4, PBMC, six months of LAQ treatment): −1.112; Fold-Change (4.0 vs. 0.0) (gene NFIB, after six months of LAQ): −1.2706; Fold-Change (4.0 vs. 0.0) (gene NHLH1, after six months of LAQ): −1.305; Fold-Change (4.0 vs. 0.0) (gene NHLH2, after six months of LAQ): −1.123; Fold-Change (4.0 vs. 0.0) (gene NKX3-1, after six months of LAQ): −1.231; Fold-Change (4.0 vs. 0.0) (gene NPBWR2, six months of treatment): −1.159; Fold-Change (4.0 vs. 0.0) (gene NR1D1 /// THRA, after six months of LAQ): −1.129; Fold-Change (4.0 vs. 0.0) (gene NR5A2, after six months of LAQ): −1.135; Fold-Change (4.0 vs. 0.0) (gene NRIP2, PBMC, six months of LAQ treatment): −1.12; Fold-Change (4.0 vs. 0.0) (gene NRP2, after six months of LAQ): −1.129; Fold-Change (4.0 vs. 0.0) (gene NRXN1, six months of treatment): −1.15; Fold-Change (4.0 vs. 0.0) (gene NRXN2): −1.1914; Fold-Change (4.0 vs. 0.0) (gene NTF3): −1.186; Fold-Change (4.0 vs. 0.0) (gene NTS, PBMC, six months of LAQ treatment): −1.108; Fold-Change (4.0 vs. 0.0) (gene NUDT7, after six months of LAQ): −1.26; Fold-Change (4.0 vs. 0.0) (gene OBP2A /// OBP2B, after six months of LAQ): −1.141; Fold-Change (4.0 vs. 0.0) (gene OBSL1, six months of treatment): −1.152; Fold-Change (4.0 vs. 0.0) (gene OLAH, after six months of LAQ): −1.123; Fold-Change (4.0 vs. 0.0) (gene OR2F1 /// OR2F2, six months of treatment): −1.157; Fold-Change (4.0 vs. 0.0) (gene OR2H2, six months of treatment): −1.159; Fold-Change (4.0 vs. 0.0) (gene OR7A17, after six months of LAQ): −1.329; Fold-Change (4.0 vs. 0.0) (gene OR7E19P): −1.188; Fold-Change (4.0 vs. 0.0) (gene OR10H2, PBMC, six months of LAQ treatment): −1.116; Fold-Change (4.0 vs. 0.0) (gene OR10J1, six months of treatment): −1.159; Fold-Change (4.0 vs. 0.0) (gene OR52A1): −1.186; Fold-Change (4.0 vs. 0.0) (gene ORAI2): −1.186; Fold-Change (4.0 vs. 0.0) (gene OSBPL10, six months of treatment): −1.149; Fold-Change (4.0 vs. 0.0) (gene OSGIN2, after six months of LAQ): −1.134; Fold-Change (4.0 vs. 0.0) (gene OTOF, after six months of LAQ): −1.143; Fold-Change (4.0 vs. 0.0) (gene OTUB1, six months of treatment): −1.145; Fold-Change (4.0 vs. 0.0) (gene PAEP, six months of treatment): −1.158; Fold-Change (4.0 vs. 0.0) (gene PAH, PBMC, six months of LAQ treatment): −1.119; Fold-Change (4.0 vs. 0.0) (gene PAPOLA, after six months of LAQ): −1.2676; Fold-Change (4.0 vs. 0.0) (gene PAPPA, six months of treatment): −1.145; Fold-Change (4.0 vs. 0.0) (gene PARK2, after six months of LAQ): −1.139; Fold-Change (4.0 vs. 0.0) (gene PAX2, six months of treatment): −1.151; Fold-Change (4.0 vs. 0.0) (gene PAX3): −1.177; Fold-Change (4.0 vs. 0.0) (gene PCDH11Y, PBMC, six months of LAQ treatment): −1.121; Fold-Change (4.0 vs. 0.0) (gene PCDHA10, six months of treatment): −1.145; Fold-Change (4.0 vs. 0.0) (gene PCDHB3, six months of treatment): −1.148; Fold-Change (4.0 vs. 0.0) (gene PCDHGA3, after six months of LAQ): −1.137; Fold-Change (4.0 vs. 0.0) (gene PCNXL2, six months of treatment): −1.144; Fold-Change (4.0 vs. 0.0) (gene PDCD6, six months of treatment): −1.16; Fold-Change (4.0 vs. 0.0) (gene PDE6G, after six months of LAQ): −1.138; Fold-Change (4.0 vs. 0.0) (gene PDE10A, six months of treatment): −1.16; Fold-Change (4.0 vs. 0.0) (gene PDE12, six months of treatment): −1.159; Fold-Change (4.0 vs. 0.0) (gene PDIA2, after six months of LAQ): −1.229; Fold-Change (4.0 vs. 0.0) (gene PDLIM4): −1.188; Fold-Change (4.0 vs. 0.0) (gene PDLIM4, after six months of LAQ): −1.144; Fold-Change (4.0 vs. 0.0) (gene PDLIM7, after six months of LAQ): −1.347; Fold-Change (4.0 vs. 0.0) (gene PENK, after six months of LAQ): −1.236; Fold-Change (4.0 vs. 0.0) (gene PGAM2, six months of treatment): −1.16; Fold-Change (4.0 vs. 0.0) (gene PGK2, six months of treatment): −1.157; Fold-Change (4.0 vs. 0.0) (gene PHLDA3, six months of treatment): −1.158; Fold-Change (4.0 vs. 0.0) (gene PHLDB1): −1.1913; Fold-Change (4.0 vs. 0.0) (gene PID1, PBMC, six months of LAQ treatment): 1.652; Fold-Change (4.0 vs. 0.0) (gene PIR, after six months of LAQ): −1.129; Fold-Change (4.0 vs. 0.0) (gene PITX3, after six months of LAQ): −1.229; Fold-Change (4.0 vs. 0.0) (gene PKNOX2, after six months of LAQ): −1.237; Fold-Change (4.0 vs. 0.0) (gene PLA1A, after six months of LAQ): −1.274; Fold-Change (4.0 vs. 0.0) (gene PLA2G6, after six months of LAQ): −1.14; Fold-Change (4.0 vs. 0.0) (gene PLA2R1, after six months of LAQ): −1.129; Fold-Change (4.0 vs. 0.0) (gene PLAT, six months of treatment): −1.157; Fold-Change (4.0 vs. 0.0) (gene PLCB4): −1.195; Fold-Change (4.0 vs. 0.0) (gene PLK4, after six months of LAQ): −1.23; Fold-Change (4.0 vs. 0.0) (gene PLOD2, after six months of LAQ): −1.307; Fold-Change (4.0 vs. 0.0) (gene PLVAP): −1.195; Fold-Change (4.0 vs. 0.0) (gene PLXNA1): −1.1951; Fold-Change (4.0 vs. 0.0) (gene PLXNB1): −1.193; Fold-Change (4.0 vs. 0.0) (gene PMS2L4): −1.1883

Source: patent publication US20160201132A1, “GENE EXPRESSION BIOMARKERS OF LAQUINIMOD RESPONSIVENESS” (Teva Pharmaceutical Industries Ltd., priority 2013, published 2016)
